The results in this text go back to doi:10.1101/2025.04.23.650309.

Chains of the proteins cited; added tags and fusions are not shown. Lines headed by an entry give the natural chain unless they say otherwise; changes in a name come on top.
UniProt O00308, whole entry: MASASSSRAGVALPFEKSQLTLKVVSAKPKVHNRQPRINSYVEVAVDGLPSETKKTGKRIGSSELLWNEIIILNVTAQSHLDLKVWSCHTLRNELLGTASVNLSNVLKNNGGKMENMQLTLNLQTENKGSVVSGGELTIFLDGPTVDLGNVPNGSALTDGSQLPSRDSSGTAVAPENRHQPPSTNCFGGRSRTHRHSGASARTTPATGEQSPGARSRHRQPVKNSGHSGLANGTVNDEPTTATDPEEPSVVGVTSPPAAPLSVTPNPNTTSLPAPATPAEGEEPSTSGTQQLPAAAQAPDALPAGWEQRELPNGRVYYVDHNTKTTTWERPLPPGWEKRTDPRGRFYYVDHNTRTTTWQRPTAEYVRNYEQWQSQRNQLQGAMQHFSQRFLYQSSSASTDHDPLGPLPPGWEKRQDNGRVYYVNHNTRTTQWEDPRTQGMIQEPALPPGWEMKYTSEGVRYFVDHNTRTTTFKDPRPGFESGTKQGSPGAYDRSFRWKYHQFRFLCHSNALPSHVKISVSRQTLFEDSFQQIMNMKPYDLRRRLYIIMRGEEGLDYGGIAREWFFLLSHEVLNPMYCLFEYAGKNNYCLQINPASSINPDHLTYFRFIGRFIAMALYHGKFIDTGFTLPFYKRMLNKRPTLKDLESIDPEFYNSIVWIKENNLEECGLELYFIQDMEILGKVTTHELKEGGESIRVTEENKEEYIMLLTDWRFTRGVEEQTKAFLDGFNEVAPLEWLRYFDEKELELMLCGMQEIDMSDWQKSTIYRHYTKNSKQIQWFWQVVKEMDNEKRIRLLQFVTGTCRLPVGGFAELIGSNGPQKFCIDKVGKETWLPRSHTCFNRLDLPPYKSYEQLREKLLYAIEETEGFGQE

These are yes or no findings as the source states them, for the method shown. Binding seen in cells or lysates may run through a third protein. Some results given as binding are weak or reduced against the parent protein; the word gives no strength. Where a sequence is shown, tags or fusion partners need not be part of it.

B1: FLAG-NDFIP2 (WT) (protein, UniProt Q9NV92 1-336)
chain: MARRRSQRVCASGPSMLNSARGAPELLRGTATNAEVSAAAAGATGSEELPPGDRGCRNGGGRGPAATTSSTGVAVGAEHGEDSLSRKPDPEPGRMDHHQPGTGRYQVLLNEEDNSESSAIEQPPTSNPAPQIVQAASSAPALETDSSPPPYSSITVEVPTTSDTEVYGEFYPVPPPYSVATSLPTYDEAEKAKAAAMAAAAAETSQRIQEEECPPRDDFSDADQLRVGNDGIFMLAFFMAFIFNWLGFCLSFCITNTIAGRYGAICGFGLSLIKWILIVRFSDYFTGYFNGQYWLWWIFLVLGLLLFFRGFVNYLKVRNMSESMAAAHRTRYFFLL
B2: FLAG-NDFIP2^Y151A (protein, UniProt Q9NV92 1-336)
chain: MARRRSQRVCASGPSMLNSARGAPELLRGTATNAEVSAAAAGATGSEELPPGDRGCRNGGGRGPAATTSSTGVAVGAEHGEDSLSRKPDPEPGRMDHHQPGTGRYQVLLNEEDNSESSAIEQPPTSNPAPQIVQAASSAPALETDSSPPPASSITVEVPTTSDTEVYGEFYPVPPPYSVATSLPTYDEAEKAKAAAMAAAAAETSQRIQEEECPPRDDFSDADQLRVGNDGIFMLAFFMAFIFNWLGFCLSFCITNTIAGRYGAICGFGLSLIKWILIVRFSDYFTGYFNGQYWLWWIFLVLGLLLFFRGFVNYLKVRNMSESMAAAHRTRYFFLL
B3: FLAG-NDFIP2^Y151A;Y177A (protein, UniProt Q9NV92 1-336)
chain: MARRRSQRVCASGPSMLNSARGAPELLRGTATNAEVSAAAAGATGSEELPPGDRGCRNGGGRGPAATTSSTGVAVGAEHGEDSLSRKPDPEPGRMDHHQPGTGRYQVLLNEEDNSESSAIEQPPTSNPAPQIVQAASSAPALETDSSPPPASSITVEVPTTSDTEVYGEFYPVPPPASVATSLPTYDEAEKAKAAAMAAAAAETSQRIQEEECPPRDDFSDADQLRVGNDGIFMLAFFMAFIFNWLGFCLSFCITNTIAGRYGAICGFGLSLIKWILIVRFSDYFTGYFNGQYWLWWIFLVLGLLLFFRGFVNYLKVRNMSESMAAAHRTRYFFLL
B4: FLAG-NDFIP2^Y177A (protein, UniProt Q9NV92 1-336)
chain: MARRRSQRVCASGPSMLNSARGAPELLRGTATNAEVSAAAAGATGSEELPPGDRGCRNGGGRGPAATTSSTGVAVGAEHGEDSLSRKPDPEPGRMDHHQPGTGRYQVLLNEEDNSESSAIEQPPTSNPAPQIVQAASSAPALETDSSPPPYSSITVEVPTTSDTEVYGEFYPVPPPASVATSLPTYDEAEKAKAAAMAAAAAETSQRIQEEECPPRDDFSDADQLRVGNDGIFMLAFFMAFIFNWLGFCLSFCITNTIAGRYGAICGFGLSLIKWILIVRFSDYFTGYFNGQYWLWWIFLVLGLLLFFRGFVNYLKVRNMSESMAAAHRTRYFFLL
B5: FLAG-NDFIP2^Y186A (protein, UniProt Q9NV92 1-336)
chain: MARRRSQRVCASGPSMLNSARGAPELLRGTATNAEVSAAAAGATGSEELPPGDRGCRNGGGRGPAATTSSTGVAVGAEHGEDSLSRKPDPEPGRMDHHQPGTGRYQVLLNEEDNSESSAIEQPPTSNPAPQIVQAASSAPALETDSSPPPYSSITVEVPTTSDTEVYGEFYPVPPPYSVATSLPTADEAEKAKAAAMAAAAAETSQRIQEEECPPRDDFSDADQLRVGNDGIFMLAFFMAFIFNWLGFCLSFCITNTIAGRYGAICGFGLSLIKWILIVRFSDYFTGYFNGQYWLWWIFLVLGLLLFFRGFVNYLKVRNMSESMAAAHRTRYFFLL

The target of this experiment is HA-WWP2 (full length) (UniProt O00308). The experiment can be described thus: co-IP.
For B1, the binding entry is recorded as “binds”. As to B2, the binding entry was “binds”. As for B3, the binding result was “binds”.

Take B4: the binding result is recorded as “binds”.

Consider B5, for which the binding result is given as “binds”.
